Laboratory results from PubChem BioAssay AID2216 (Broad Institute, 2009).
The whole screen tested about 300,000 compounds, of which about 3,300 (1.1%) were called active. The source calls these results inconclusive, neither active nor inactive.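 Rule for the calls: active = more than half of the replicate wells show a fall in the fluorescence ratio signal beyond about 16% (limit read from the data, passing the limit was not always enough); inconclusive = exactly half of the replicate wells pass the set limit; inactive = fewer than half of replicates pass the limit.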

Tested on: Ran GTPase (GTP-bound) - importin-beta complex
Test: disruptors of Ran-importin-beta complex formation – biochemical, FRET, CFP-Ran, YFP-importin-beta, homogeneous, primary screen (AID 2216);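 note: 0% = DMSO wells and 100% = Ran loaded with GDP instead of GTP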
Conditions: cell-free CFP-Ran/YFP-importin-beta FRET ratio; stronger effect = higher value; concentration not given here

Row | Structure (SMILES) | inhibition
1 | CN(C)CCOC(=O)C(O)(c1ccccc1)C1CCCC1 (stereo not drawn) | inconclusive: 22.9%
2 | COc1ccccc1OP(C)(=O)Nc1cc(Cl)ccc1C (stereo not drawn) | inconclusive: 9.5%
3 | CP(=O)(Nc1ccccn1)Oc1ccc(Cl)cc1 (stereo not drawn) | inconclusive: 11%
